Results on six molecules are retold here after patent US20230242675A1.

The target in assay [1] is cynomolgus (cyno) PD-L1/His fusion protein (cynomolgus) (UniProt G7PSE7). Kind of assay: ELISA.
Assay [2] addresses human PD-L1/Fc Fusion Protein (human). The experiment in a line: ELISA. (In general: ELISA stands for enzyme-linked immunosorbent assay.)
The target of assay [3] is cynomolgus (cyno) PD-L1/His fusion protein (cynomolgus) (UniProt G7PSE7). The experiment in a line: ELISA / BLI.

Results are given in words; binding and its absence hold for the method and conditions named. Some entries that bind do so weakly or less than the wild type.

B1: EM0005-mAb90 scFv (scFv)
scFv: QVQLKQSGAELVRPGSSVKMSCKTSGYTFTSHSINWVKQRPGQGLEWIGYMYIGNGYTEYNEKFKGKATLTSDTSSTTAYMQLSSLTSEDSAIYFCAKITPVVAPYVMDYWGQGTSVTVSSGGGGSGGGGSGGGGSDIVMTQTHKFMSTSVGDRVSITCKASQDVGTAVAWYQQKPGQSPKLLIYWASTRHTGVPDRFTGSGSGTDFTLTISNVQSEDLADYFCQQYSSYPYTFGGGTKLELK
On to B1, for which the binding entry in assay [1] and in assay [2] was “binds” throughout.

B2: EM0005-mAb86 scFv (scFv)
scFv: QVQLQQSGAELVRPGSSVKMSCKTSGYTFTTYGINWVKQRPGQGLEWIGYIYIGNGYTEYNEKFKGKATLTSDPSSRTAYMQLSSLTSEDSAIYFCARDLMVIAPKTMDYWGQGTSVTVSSGGGGSGGGGSGGGGSDIQMNQSHKFMSTSVGDRVSITCKASQDVGTAVAWYQQKPGQSPKLLIYWASTRHTGVPDRFTGGGSGTDFTLTISNVQSEDLADYFCQQYSSYPYTFGGGTKLEMK
On to B2, for which the binding entry in assay [1] is “binds”.

B3: EM0005-mAb87c (antibody, human IgG1, kappa, V domains shown)
VH: EVQLQQSGPELVKPGASVKISCKASGYSFTDYYINWVKQSPEKSLEWIGETIPNTGGTTYNQKFKAKATLTVDKSSSTAYMQLKSLTSEDSAVYYCARYQSGSPFAYWGQGTPVTVSS
VL: DIVMTQSQKFMSTTVGDRVSITCKASQNVGTAVAWYQQKPGQSPKLLIYSASNRYTGVPDRFTGSGSGTDFTLTISNMQSEDLADYFCQQHYSTPYTFGGGTKLEIKR
Turning to B3, in assay [3], the binding result is given as “binds”.

B4: EM0005-mAb86c (antibody, human IgG1, kappa, V domains shown)
VH: QVQLQQSGAELVRPGSSVKMSCKTSGYTFTTYGINWVKQRPGQGLEWIGYIYIGNGYTEYNEKFKGKATLTSDPSSRTAYMQLSSLTSEDSAIYFCARDLMVIAPKTMDYWGQGTSVTVSS
VL: DIQMNQSHKFMSTSVGDRVSITCKASQDVGTAVAWYQQKPGQSPKLLIYWASTRHTGVPDRFTGGGSGTDFTLTISNVQSEDLADYFCQQYSSYPYTFGGGTKLEMKR
Take B4: the binding result in assay [3] is given as “binds”.

B5: EM0005-mAb90c (antibody, human IgG1, kappa, V domains shown)
VH: QVQLKQSGAELVRPGSSVKMSCKTSGYTFTSHSINWVKQRPGQGLEWIGYMYIGNGYTEYNEKFKGKATLTSDTSSTTAYMQLSSLTSEDSAIYFCAKITPVVAPYVMDYWGQGTSVTVSS
VL: DIVMTQTHKFMSTSVGDRVSITCKASQDVGTAVAWYQQKPGQSPKLLIYWASTRHTGVPDRFTGSGSGTDFTLTISNVQSEDLADYFCQQYSSYPYTFGGGTKLELKR
With B5, in assay [3], the binding entry is recorded as “binds”.

B6: EM0005-mAb87 scFv (scFv)
scFv: EVQLQQSGPELVKPGASVKISCKASGYSFTDYYINWVKQSPEKSLEWIGETIPNTGGTTYNQKFKAKATLTVDKSSSTAYMQLKSLTSEDSAVYYCARYQSGSPFAYWGQGTPVTVSSGGGGSGGGGSGGGGSDIVMTQSQKFMSTTVGDRVSITCKASQNVGTAVAWYQQKPGQSPKLLIYSASNRYTGVPDRFTGSGSGTDFTLTISNMQSEDLADYFCQQHYSTPYTFGGGTKLEIK
Turning to B6, the binding entry in assay [1] is “binds”.
